According to paper doi:10.1101/228775:
These are yes or no findings as the source states them, for the method shown. Some results given as binding are weak or reduced against the parent protein; the word gives no strength. Sequences can lack the tags named with a protein.

Chains of the proteins cited; added tags and fusions are not shown. Lines headed by an entry give the natural chain unless they say otherwise; changes in a name come on top.
UniProt A0A0A7HFE1, whole entry, looked up, stated change not applied: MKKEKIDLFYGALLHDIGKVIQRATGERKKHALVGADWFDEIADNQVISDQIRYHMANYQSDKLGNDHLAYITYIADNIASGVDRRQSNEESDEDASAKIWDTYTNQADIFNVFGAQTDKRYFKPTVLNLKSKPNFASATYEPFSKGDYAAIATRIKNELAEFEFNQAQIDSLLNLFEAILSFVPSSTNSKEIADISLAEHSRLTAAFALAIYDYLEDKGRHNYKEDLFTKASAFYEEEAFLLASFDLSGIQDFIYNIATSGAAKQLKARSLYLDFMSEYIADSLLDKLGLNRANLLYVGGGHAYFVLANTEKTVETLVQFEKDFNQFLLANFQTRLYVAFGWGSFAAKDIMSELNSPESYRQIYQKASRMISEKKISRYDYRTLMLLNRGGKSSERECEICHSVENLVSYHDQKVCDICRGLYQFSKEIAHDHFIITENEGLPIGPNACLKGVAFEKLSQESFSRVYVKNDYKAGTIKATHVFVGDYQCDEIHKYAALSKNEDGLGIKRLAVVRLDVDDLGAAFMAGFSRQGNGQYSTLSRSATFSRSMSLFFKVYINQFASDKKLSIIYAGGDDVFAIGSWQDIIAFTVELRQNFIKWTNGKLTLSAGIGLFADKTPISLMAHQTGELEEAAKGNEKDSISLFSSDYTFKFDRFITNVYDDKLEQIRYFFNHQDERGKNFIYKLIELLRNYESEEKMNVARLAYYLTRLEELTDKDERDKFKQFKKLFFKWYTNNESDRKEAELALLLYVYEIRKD

T1: N-terminal-StrepII-tagged Csm2 of Streptococcus thermophilus (from plasmid pCsm2-Tag) (Streptococcus thermophilus)
T1 sequence: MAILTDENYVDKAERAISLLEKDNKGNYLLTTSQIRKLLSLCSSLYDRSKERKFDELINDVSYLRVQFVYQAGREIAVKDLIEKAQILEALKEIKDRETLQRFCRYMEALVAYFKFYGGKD


Target: T1, N-terminal-StrepII-tagged Csm2 of Streptococcus thermophilus (from plasmid pCsm2-Tag) (Streptococcus thermophilus)
Test: co-purification

Molecule	binding
Cas10 D16A of Streptococcus thermophilus (DNase-defective subunit of the StCsm complex) (from UniProt A0A0A7HFE1 1-758) (enzyme)	binds
Csm3 D33A of Streptococcus thermophilus (RNase-defective subunit of the StCsm complex) (enzyme, UniProt A0A0A7HIF0 1-220) MTFAKIKFSAQIRLETGLHIGGSDAFAAIGAIASPVIKDPITNIPIIPGSSLKGKMRTLLAKVYNEKVAEKPSDDSDILSRLFGNSKDKRFKMGRLIFRDAFLSNADELDSLGVRSYTEVKFENTIDRITAEANPRQIERAIRNSTFDFELIYEITDENENQVEEDFKVIRDGLKLLELDYLGGSGSRGYGKVAFEKLKATTVFGNYDVKTLNELLTAEV	binds
